Experimental data reported in PubChem BioAssay (Tox21).
The shares of active, inactive and inconclusive entries below differ from those in the screen. For some of these results: Potencies of inconclusive entries are doubtful fits and often do not repeat. Active and inactive are the calls of the source. Unless noted, calls follow the shape of the full dose curve.

By UniProt entry, the sequences of proteins in these tests, tags left out. Where a name states a change or a piece, a line headed by the entry shows the natural chain unless it says otherwise.
UniProt P14416, whole entry, looked up: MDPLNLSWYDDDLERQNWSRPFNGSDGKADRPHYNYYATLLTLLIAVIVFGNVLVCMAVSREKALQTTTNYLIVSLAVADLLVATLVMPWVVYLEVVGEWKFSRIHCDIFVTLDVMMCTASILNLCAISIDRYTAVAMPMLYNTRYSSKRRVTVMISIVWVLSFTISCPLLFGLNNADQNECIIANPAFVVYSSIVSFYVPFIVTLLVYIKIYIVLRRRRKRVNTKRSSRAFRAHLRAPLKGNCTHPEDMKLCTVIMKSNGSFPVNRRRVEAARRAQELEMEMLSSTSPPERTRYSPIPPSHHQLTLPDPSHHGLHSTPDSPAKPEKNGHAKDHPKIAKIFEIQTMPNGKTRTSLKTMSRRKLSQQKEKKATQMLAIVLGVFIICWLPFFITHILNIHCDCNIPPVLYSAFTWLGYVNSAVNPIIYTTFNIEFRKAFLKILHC
UniProt P11229: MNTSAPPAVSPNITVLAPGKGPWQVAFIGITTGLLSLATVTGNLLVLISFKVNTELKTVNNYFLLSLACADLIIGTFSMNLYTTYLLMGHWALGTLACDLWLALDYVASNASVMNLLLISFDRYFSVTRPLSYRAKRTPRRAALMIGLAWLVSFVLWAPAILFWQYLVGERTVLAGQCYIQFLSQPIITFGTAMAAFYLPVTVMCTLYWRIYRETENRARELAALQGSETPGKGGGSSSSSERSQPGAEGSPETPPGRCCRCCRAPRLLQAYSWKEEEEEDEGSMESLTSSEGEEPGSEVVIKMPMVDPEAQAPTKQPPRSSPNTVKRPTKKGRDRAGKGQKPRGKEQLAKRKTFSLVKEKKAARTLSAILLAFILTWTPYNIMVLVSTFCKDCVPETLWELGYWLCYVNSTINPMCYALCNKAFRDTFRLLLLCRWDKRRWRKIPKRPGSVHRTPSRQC
UniProt P28223, whole entry, looked up: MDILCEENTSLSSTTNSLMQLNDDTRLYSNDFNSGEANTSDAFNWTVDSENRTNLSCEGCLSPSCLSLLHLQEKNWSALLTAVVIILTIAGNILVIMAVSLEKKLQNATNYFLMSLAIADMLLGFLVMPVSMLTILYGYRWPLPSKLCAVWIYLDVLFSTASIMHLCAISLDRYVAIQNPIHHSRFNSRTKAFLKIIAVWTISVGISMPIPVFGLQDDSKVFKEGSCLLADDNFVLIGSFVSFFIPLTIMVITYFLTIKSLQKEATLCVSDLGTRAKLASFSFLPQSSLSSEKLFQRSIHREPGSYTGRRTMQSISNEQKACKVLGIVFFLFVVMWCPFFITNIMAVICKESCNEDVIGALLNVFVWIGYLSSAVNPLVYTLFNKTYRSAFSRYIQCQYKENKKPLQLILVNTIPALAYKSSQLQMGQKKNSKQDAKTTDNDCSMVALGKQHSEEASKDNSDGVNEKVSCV

Tests used:
[1] = p53 small molecule agonists, cell-based qHTS assay with human liver microsomes: qHTS cell viability counter screen (AID 1963579); also: nearly all actives have a fitted effect of over 45% in size; also: potency is read from the fitted curve at half-maximal effect
In short: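 Metabolically activated exposure: compounds, human liver microsomes and NADPH (0.5 mg/mL final apiece) were added to p53RE-bla cells seeded 5 h earlier, left 16 h at 37 C, and then assessed for viability by CellTiter-Glo luminescence.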

[2] = p53 small molecule agonists, cell-based qHTS assay (AID 1963582; active = well fitted activation curve with a large enough effect in the signal ratio in the repeat runs, not every such curve was filed as active; inconclusive = weak or mixed curves; the % refers to the signal ratio; also: potency is read from the fitted curve at half-maximal effect; as to activation: % is scaled to controls: 0 for no effect and ±100 for the full control effect); conditions: HCT-116 p53RE-bla reporter, beta-lactamase FRET ratio, 16 h; activation: at 66 µM (top of the series) unless noted
In short: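 p53RE-bla beta-lactamase reporter cells rested 5 h at 37 C/5% CO2, then received compounds in DMSO by pin transfer and were incubated 16 h at 37 C. LiveBLAzer B/G FRET substrate was loaded for 2 h at room temperature before fluorescence reading.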

[3] = cAMP Responsive Elements (CRE) small molecule agonists, cell-based qHTS assay (AID 1963590); conditions: CRE-bla HEK293T, beta-lactamase FRET ratio, 3 h; activation: at 92.4 µM (top of the series) unless noted; also: potency is read from the fitted curve at half-maximal effect; as to activation: % is scaled to controls: 0 for no effect and ±100 for the full control effect
In short: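 CRE-bla HEK 293T cells in DMEM with 10% dialyzed FBS, NEAA, pyruvate and 25 mM HEPES were plated 18 h at 37 C/5% CO2, then exposed to compounds in DMSO for 3 h before LiveBLAzer B/G FRET substrate addition.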

[4] = cAMP Responsive Elements (CRE) small molecule antagonists, cell-based qHTS assay (AID 1963591; active = well fitted inhibition curve with a large enough effect in the signal ratio in the repeat runs, not every such curve was filed as active; inconclusive = weak or mixed curves, or effect the other way; the % refers to the signal ratio; also: % is scaled to controls: 0 for no effect and ±100 for the full control effect); conditions: CRE-bla HEK293T, beta-lactamase FRET ratio; activity change, negative = inhibition: at 92.4 µM (top of the series) unless noted
In short: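 CRE-bla HEK293T cells were plated 18 h at 37 °C/5% CO2, pinned with compound in DMSO, then stimulated with NKH477 at 0.25 uM final for 3 h. LiveBLAzer B/G FRET substrate was added and plates incubated 2 h at room temperature.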

[5] = target: Beta-2 adrenergic receptor (Homo sapiens) (UniProt P07550); assay: Adrenergic beta2 receptor (ADRB2) small molecule agonists, cell-based qHTS assay (AID 1963593); conditions: CHO-ADRB2 cells, cAMP HTRF, 30 min; activation: at 92.4 µM (top of the series) unless noted; also: potency is read from the fitted curve at half-maximal effect;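 as to activation: CHO cells stably overexpressing human ADRB2; % is scaled to controls: 0 for no effect and ±100 for the full control effect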
In short: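 CHO cells stably over-expressing ADRB2 were plated overnight at 37C, then dosed with compounds plus a stimulation mix containing 100uM IBMX and 25uM Ro-20-1724 for 0.5hr at room temperature. cAMP was measured by HTRF competition, 1hr.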

[6] = target: D(2) dopamine receptor (Homo sapiens) (UniProt P14416); assay: Dopamine D2 receptor (DRD2) small molecule agonists, cell-based qHTS assay (AID 1963594); conditions: HEK293-DRD2 cAMP HTRF, agonist mode, 30 min; activation: at 92.4 µM (top of the series) unless noted; also: potency is read from the fitted curve at half-maximal effect; nearly all actives have a fitted effect of over 35% in size
In short: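 HEK293 cells stably expressing DRD2 were cultured 24 h at 37 C, then given Ro20-1724 (0.1 mM final) and compounds for 10 min at room temperature. NKH477 (200nM) was then added for 30 min. cAMP was read by HTRF.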

[7] = target: Muscarinic acetylcholine receptor M1 (Homo sapiens) (UniProt P11229); assay: Cholinergic receptor muscarinic 1 (CHRM1) small molecule antagonists, cell-based qHTS assay (AID 1963588); also: potency is read from the fitted curve at half-maximal effect; nearly all actives have a fitted effect of over 40% in size
In short: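 CHRM1-CHO calcium-flux assay, antagonist mode. Cells were seeded 18 h, dye-loaded 1 h at 37 C and given compound for 5 min at RT, then acetylcholine was added at 50nM. FDSS fluorescence was read 3 min; 15 concentrations, three runs.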

[8] = target: 5-hydroxytryptamine receptor 2A (Homo sapiens) (UniProt P28223); assay: 5-hydroxytryptamine receptor 2A (HTR2A) small molecule antagonists, cell-based qHTS assay (AID 1963586); also: potency is read from the fitted curve at half-maximal effect; nearly all actives have a fitted effect of over 45% in size
In short: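 Antagonist-mode intracellular calcium assay: DOI (4 nM) added after 5 min compound pre-incubation at room temperature to dye-loaded HTR2A-CHO cells. Fluorescence followed for 3 min, sampled every second.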

With `CCC(=O)O[C@]1(C(=O)SCF)[C@H](C)C[C@H]2[C@@H]3C[C@H](F)C4=CC(=O)C=C[C@]4(C)[C@@]3(F)[C@@H](O)C[C@@]21C` the Potency [1] was inconclusive: 2.51 µM [rising, partial curve, poor fit], the Potency [2] was inconclusive: 2.51 µM [rising, partial curve] and the Potency [3] was inconclusive: 33.5 µM [activator]. The Potency [4] was “inactive” and the Potency [5] was inconclusive: 1.19 µM [inhibitor, single point].

In the case of `O=C(O)c1ccccc1NCCc1ccccc1`, the Potency [1] is reported as “inactive”, the Potency [2] is reported as “inactive” and the Potency [3] is reported as inconclusive: 21.1 µM [rising, partial curve, poor fit]. For the same compound, the activation [5] was inconclusive: -22.3% [at 42.5 µM].

For `Cc1cc(O)ccc1N`, the Potency [1] was inconclusive: 46 µM [rising, single point], the Potency [2] was inconclusive: 20.6 µM [rising, partial curve] and the Potency [4] was “inactive”. The Potency [5] was “inactive” and the Potency [6] was inconclusive: 30.8 µM [falling, partial curve, poor fit].

In the case of `CN(CCOc1ccc(NS(C)(=O)=O)cc1)CCc1ccc(NS(C)(=O)=O)cc1`, the Potency [1] is reported as inconclusive: 0.199 µM [cytotoxic, single point], the Potency [2] is reported as inconclusive: 0.0223 µM [rising, partial curve] and the Potency [7] is reported as active: 8.18 µM. For the same compound, the activation [5] was inconclusive: -8.45% [at 42.5 µM].

In the case of `CCCCOCCOC(=O)CCCCCCCCC(=O)OCCOCCCC`, the Potency [1] is reported as inconclusive: 45.8 µM [cytotoxic, single point], the Potency [2] is reported as “inactive” and the Potency [4] is reported as “inactive”.

For `NC(=O)NS(=O)(=O)c1ccc(N)cc1`, the Potency [1] was “inactive”, the Potency [8] was inconclusive: 4.1 µM [inhibitor, full curve] and the activation [3] was inconclusive: 2.32% [at 42.5 µM]. The Potency [5] was “inactive”.
